Our source for the binding values is PMC4636238.

Chains of the proteins cited; added tags and fusions are not shown. Residues count along the entry.
UniProt P15516, residues 20-43: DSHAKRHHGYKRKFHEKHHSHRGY
UniProt Q4KWH8: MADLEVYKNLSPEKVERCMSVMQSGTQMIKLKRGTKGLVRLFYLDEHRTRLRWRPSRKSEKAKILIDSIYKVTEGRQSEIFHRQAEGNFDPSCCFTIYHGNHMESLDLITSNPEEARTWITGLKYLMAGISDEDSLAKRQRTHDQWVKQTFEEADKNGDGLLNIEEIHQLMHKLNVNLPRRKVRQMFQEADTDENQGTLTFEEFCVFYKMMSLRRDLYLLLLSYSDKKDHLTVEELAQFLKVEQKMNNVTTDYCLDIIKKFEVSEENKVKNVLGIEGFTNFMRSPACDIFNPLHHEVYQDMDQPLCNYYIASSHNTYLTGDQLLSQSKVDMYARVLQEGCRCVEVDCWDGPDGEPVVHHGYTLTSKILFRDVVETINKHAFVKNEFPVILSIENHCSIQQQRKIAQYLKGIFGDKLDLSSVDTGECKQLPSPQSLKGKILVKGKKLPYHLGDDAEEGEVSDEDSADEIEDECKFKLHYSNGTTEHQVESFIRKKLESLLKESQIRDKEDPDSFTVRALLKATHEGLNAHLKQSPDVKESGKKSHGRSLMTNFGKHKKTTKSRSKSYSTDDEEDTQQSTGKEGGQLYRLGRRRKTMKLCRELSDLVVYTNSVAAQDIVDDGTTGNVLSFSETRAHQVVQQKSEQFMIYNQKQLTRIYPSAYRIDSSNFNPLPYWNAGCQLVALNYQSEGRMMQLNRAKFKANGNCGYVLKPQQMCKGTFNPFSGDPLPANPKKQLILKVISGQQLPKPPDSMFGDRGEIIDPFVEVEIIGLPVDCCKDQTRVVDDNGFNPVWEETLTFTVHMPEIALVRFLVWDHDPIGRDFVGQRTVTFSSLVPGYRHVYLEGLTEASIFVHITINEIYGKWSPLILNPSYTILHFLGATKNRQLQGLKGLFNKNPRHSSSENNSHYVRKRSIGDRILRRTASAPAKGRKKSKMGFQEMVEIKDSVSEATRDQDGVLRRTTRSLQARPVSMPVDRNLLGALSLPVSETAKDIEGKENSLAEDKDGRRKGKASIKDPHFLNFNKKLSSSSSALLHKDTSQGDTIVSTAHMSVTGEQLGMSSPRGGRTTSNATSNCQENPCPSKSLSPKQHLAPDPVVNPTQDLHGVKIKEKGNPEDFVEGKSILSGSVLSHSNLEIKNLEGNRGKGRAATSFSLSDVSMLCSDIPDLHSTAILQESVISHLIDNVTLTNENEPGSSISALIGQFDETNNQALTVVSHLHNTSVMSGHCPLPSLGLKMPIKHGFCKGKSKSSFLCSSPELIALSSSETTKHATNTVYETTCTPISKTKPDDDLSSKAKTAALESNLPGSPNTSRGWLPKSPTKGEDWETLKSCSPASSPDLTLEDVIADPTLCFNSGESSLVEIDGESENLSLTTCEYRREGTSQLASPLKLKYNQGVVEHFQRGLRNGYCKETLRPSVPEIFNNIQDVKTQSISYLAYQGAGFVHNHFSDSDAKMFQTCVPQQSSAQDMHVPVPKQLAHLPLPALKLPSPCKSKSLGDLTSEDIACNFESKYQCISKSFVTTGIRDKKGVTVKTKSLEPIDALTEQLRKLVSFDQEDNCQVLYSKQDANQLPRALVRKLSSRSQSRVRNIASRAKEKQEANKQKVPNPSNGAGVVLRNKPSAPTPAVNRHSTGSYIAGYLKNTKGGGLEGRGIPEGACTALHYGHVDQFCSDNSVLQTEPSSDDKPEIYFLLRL
UniProt P20930: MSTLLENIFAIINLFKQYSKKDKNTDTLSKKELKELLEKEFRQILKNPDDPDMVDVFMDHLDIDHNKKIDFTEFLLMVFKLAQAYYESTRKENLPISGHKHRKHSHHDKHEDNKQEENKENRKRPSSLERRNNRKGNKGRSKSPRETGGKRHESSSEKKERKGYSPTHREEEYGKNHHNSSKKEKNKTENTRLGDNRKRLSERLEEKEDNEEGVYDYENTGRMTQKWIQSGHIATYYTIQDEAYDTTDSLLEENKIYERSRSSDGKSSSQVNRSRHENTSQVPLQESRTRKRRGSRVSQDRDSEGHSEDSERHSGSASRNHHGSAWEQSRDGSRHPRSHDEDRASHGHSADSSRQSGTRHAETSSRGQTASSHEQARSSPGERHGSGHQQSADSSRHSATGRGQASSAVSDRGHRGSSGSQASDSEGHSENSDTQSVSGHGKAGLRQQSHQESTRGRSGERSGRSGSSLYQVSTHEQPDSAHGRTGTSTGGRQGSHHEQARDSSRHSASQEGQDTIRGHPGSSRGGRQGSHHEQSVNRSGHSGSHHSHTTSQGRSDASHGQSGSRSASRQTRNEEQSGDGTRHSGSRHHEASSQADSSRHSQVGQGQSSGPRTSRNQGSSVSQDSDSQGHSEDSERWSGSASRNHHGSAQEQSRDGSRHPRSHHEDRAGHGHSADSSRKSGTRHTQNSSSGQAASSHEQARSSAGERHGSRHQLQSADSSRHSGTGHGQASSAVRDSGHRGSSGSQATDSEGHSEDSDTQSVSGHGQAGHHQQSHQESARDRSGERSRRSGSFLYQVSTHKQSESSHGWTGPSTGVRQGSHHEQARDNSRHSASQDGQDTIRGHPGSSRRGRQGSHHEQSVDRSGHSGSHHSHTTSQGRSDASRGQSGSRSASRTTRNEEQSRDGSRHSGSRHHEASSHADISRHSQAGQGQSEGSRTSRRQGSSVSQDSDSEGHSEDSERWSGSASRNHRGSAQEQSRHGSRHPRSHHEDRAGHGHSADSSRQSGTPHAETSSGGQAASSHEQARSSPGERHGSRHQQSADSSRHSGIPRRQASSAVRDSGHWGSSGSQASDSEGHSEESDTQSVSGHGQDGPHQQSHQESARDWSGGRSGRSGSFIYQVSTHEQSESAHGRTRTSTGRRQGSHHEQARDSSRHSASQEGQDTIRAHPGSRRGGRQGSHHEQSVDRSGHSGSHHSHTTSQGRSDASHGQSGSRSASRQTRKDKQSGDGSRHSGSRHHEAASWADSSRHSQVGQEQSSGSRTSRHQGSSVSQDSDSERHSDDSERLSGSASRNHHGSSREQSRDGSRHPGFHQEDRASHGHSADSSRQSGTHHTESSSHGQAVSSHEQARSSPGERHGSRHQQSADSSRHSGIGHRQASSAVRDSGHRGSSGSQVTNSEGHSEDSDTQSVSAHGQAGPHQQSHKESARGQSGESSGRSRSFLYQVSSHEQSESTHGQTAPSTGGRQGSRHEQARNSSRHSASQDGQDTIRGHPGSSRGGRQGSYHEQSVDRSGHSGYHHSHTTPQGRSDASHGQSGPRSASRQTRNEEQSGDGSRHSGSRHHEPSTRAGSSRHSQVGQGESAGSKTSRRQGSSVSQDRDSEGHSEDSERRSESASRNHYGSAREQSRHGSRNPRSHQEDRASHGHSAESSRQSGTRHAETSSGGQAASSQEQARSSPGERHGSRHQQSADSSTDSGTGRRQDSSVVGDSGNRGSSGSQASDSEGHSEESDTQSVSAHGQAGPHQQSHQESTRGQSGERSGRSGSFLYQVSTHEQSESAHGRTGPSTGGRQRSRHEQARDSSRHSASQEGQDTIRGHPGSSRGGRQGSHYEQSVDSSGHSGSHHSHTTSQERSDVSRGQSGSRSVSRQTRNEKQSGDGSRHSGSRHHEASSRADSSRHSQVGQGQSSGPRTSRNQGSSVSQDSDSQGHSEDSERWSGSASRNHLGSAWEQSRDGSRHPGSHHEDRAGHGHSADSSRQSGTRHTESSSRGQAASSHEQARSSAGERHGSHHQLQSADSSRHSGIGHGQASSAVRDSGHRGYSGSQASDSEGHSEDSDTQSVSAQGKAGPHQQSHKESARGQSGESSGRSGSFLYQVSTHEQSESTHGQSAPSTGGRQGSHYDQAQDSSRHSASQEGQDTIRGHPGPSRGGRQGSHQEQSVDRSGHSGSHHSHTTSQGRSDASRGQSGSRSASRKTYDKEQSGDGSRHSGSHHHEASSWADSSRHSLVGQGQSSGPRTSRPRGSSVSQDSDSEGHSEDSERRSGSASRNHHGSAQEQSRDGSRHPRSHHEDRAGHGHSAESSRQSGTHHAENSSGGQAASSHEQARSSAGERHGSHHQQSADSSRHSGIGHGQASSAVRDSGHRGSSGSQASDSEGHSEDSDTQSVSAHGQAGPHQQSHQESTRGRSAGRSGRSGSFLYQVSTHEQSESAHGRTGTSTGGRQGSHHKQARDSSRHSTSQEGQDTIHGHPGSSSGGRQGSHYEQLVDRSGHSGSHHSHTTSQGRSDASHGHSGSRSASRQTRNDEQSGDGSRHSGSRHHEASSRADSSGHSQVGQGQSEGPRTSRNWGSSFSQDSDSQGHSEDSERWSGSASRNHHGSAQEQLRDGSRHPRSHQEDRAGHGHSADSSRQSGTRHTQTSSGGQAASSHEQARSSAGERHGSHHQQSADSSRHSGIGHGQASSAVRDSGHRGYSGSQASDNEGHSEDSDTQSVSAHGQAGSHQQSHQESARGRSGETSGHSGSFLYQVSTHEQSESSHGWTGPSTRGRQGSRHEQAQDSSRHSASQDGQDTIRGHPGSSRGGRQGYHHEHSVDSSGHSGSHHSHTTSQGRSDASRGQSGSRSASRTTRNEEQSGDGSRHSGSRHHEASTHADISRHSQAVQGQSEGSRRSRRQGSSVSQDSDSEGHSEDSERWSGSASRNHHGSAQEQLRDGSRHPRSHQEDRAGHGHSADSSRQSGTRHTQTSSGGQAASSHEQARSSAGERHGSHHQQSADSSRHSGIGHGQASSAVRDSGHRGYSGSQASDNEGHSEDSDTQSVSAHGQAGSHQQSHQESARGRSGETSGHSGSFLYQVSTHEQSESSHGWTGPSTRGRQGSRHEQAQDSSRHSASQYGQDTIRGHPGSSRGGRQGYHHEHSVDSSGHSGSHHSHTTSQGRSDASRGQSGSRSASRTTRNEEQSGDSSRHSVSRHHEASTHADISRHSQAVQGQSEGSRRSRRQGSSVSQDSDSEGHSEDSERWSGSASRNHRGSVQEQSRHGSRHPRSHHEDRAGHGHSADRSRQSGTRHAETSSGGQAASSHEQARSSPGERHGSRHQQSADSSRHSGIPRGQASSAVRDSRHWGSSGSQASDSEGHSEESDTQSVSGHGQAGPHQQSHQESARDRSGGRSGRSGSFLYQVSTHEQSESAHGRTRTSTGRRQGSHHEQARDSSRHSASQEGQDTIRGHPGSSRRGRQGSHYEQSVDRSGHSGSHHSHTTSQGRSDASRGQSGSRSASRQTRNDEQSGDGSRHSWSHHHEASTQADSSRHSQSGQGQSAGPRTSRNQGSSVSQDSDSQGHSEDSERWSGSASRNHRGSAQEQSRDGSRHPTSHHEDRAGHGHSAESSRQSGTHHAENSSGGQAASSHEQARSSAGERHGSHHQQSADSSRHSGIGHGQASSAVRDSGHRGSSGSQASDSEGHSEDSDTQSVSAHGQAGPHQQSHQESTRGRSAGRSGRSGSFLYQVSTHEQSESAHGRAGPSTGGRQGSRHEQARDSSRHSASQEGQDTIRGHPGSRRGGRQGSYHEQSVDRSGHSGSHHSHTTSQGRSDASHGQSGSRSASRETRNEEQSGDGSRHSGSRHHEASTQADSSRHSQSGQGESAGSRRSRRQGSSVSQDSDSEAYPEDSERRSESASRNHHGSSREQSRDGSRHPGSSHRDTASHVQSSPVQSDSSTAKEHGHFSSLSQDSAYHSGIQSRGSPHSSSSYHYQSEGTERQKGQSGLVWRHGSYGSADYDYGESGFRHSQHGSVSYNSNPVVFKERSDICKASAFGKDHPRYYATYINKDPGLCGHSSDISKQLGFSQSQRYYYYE
UniProt P02788, residues 20-710: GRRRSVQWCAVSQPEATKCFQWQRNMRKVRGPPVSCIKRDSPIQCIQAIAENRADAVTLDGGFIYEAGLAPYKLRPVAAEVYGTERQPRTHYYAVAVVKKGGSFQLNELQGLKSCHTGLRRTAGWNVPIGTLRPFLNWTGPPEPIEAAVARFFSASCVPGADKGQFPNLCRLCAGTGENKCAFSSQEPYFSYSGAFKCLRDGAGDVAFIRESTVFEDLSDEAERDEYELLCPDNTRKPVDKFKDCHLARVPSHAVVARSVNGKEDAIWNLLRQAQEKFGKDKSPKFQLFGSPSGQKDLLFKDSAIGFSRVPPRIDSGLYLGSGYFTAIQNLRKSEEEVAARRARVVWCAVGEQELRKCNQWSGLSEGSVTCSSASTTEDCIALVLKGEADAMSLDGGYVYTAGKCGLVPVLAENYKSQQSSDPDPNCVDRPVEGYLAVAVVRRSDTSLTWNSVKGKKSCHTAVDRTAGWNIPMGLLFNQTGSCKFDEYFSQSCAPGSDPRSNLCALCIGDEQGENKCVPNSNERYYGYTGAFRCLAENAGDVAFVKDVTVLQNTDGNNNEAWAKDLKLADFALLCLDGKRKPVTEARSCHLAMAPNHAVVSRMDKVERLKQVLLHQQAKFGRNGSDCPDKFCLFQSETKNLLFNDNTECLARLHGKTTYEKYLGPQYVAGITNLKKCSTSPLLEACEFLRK

One experiment concerns the target histatin 5 (human) (UniProt P15516). Nature of the experiment: affinity purification with mass spectrometry; co-IP: synthetic histatin 5 held by mouse anti-histatin 3/5 monoclonal antibody on protein G magnetic beads; 300 ug pooled parotid saliva protein in PBS pH 7.5, 4°C, 24 h; washed with PBS; eluted with 2.5% acetic acid; in-solution or in-gel trypsin digestion, LC-ESI-MS/MS; only the target purified.

Experiment [1] addresses biotinylated histatin 5 (human) (UniProt P15516). Kind of experiment: affinity purification with mass spectrometry; pull-down: biotinylated histatin 5 on immobilized streptavidin agarose beads; 300 ug lyophilized parotid saliva in pH 7.0 binding buffer, 4 h, 4°C; washed with PBS with 75 mM NaCl pH 5.0; eluted at pH 2.8; trypsin digestion, LC-ESI-MS/MS; only the target purified.

These are yes or no findings as the source states them, for the method shown. Binding seen in cells or lysates may run through a third protein. These calls come from enrichment with a bait or labelling near it, and not all partners need be listed.

“1-phosphatidylinositol 4,5-bisphosphate phosphodiesterase eta-1 (from UniProt Q4KWH8 1-1693)”: the binding entry (in the experiment with histatin 5 (human); in experiment [1]) was “binds” each time.

Turning to “Annexin (Fragment) (from UniProt P07355 1-339)”, the binding entry (in the experiment with histatin 5 (human); in experiment [1]) was “binds” throughout.

On to “Basic salivary proline-rich protein 2 (Fragment) (from UniProt P02812 17-416)”, for which the binding result (with histatin 5 (human); in experiment [1]) was “binds” each time.

As for “Carbonic anhydrase 6 (from UniProt P23280 18-308) (enzyme)”, the binding result (with histatin 5 (human); in experiment [1]) was “binds” each time.

As for “Chromatin assembly factor 1, subunit A (P150), isoform CRA_a (from UniProt Q13111 1-956)”, the binding entry (with histatin 5 (human); in experiment [1]) was “binds” in each case.

In the case of “Coagulation factor VIII (from UniProt P00451 20-2351)”, the binding entry (with histatin 5 (human); in experiment [1]) was “binds” throughout.

“Collagen alpha-2(I) chain (from UniProt P08123 80-1119)”: the binding entry (with histatin 5 (human); in experiment [1]) was “binds” each time.

“Dedicator of cytokinesis 5, isoform CRA_a (from UniProt Q9H7D0 1-1870)”: the binding entry (with histatin 5 (human); in experiment [1]) was “binds” in each case.

“Dedicator of cytokinesis protein 4 (from UniProt Q8N1I0 1-1966)”: the binding entry (with histatin 5 (human); in experiment [1]) was “binds” throughout.

For the molecule “Deleted in malignant brain tumors 1 protein (from UniProt Q9UGM3 20-2413)”, the binding result (with histatin 5 (human); in experiment [1]) was “binds” each time.

Consider Filaggrin (from UniProt P20930 1-4061), for which the binding result (with histatin 5 (human); in experiment [1]) was “binds” in each case.

As to Hornerin (from UniProt Q86YZ3 1-2850), the binding entry (in the experiment with histatin 5 (human); in experiment [1]) was “binds” each time.

In the case of “IGL@ protein (Q8N5F4) (from UniProt Q8N5F4)”, the binding entry (with histatin 5 (human); in experiment [1]) was “binds” throughout.

In the case of “IGL@ protein (Q8N355) (from UniProt Q8N355)”, the binding entry (with histatin 5 (human); in experiment [1]) was “binds” in each case.

For “Immunoglobulin heavy chain variant (Fragment) (from UniProt Q9NPP6 1-416)”, the binding entry (with histatin 5 (human); in experiment [1]) was “binds” throughout.

In the case of “Lactoferrin (Fragment) (from UniProt Q19KS2)”, the binding result (in the experiment with histatin 5 (human); in experiment [1]) was “binds” each time.

As for “Lactoferroxin-C (from UniProt P02788 20-710)”, the binding entry (in the experiment with histatin 5 (human); in experiment [1]) was “binds” in each case.

Regarding “Lactoperoxidase (from UniProt P22079 81-712) (enzyme)”, the binding result (with histatin 5 (human); in experiment [1]) was “binds” each time.

For “Lactotransferrin (from UniProt P02788 20-710)”, the binding entry (with histatin 5 (human); in experiment [1]) was “binds” in each case.

As for “Pro-alpha-1 type V collagen variant (Fragment) (from UniProt P20908 38-1605)”, the binding result (with histatin 5 (human); in experiment [1]) was “binds” in each case.

Turning to Titin (from UniProt Q8WZ42 1-34350), the binding result (with histatin 5 (human); in experiment [1]) was “binds” in each case.

Take “Unconventional myosin-VIIb (from UniProt Q6PIF6 1-2116)”: the binding result (with histatin 5 (human); in experiment [1]) was “binds” in each case.

B1: Phosphoinositide 3-kinase adapter protein 1 (protein, UniProt Q6ZUJ8 1-805)
chain: MAASGVPRGCDILIVYSPDAEEWCQYLQTLFLSSRQVRSQKILTHRLGPEASFSAEDLSLFLSTRCVVVLLSAELVQHFHKPALLPLLQRAFHPPHRVVRLLCGVRDSEEFLDFFPDWAHWQELTCDDEPETYVAAVKKAISEDSGCDSVTDTEPEDEKVVSYSKQQNLPTVTSPGNLMVVQPDRIRCGAETTVYVIVRCKLDDRVATEAEFSPEDSPSVRMEAKVENEYTISVKAPNLSSGNVSLKIYSGDLVVCETVISYYTDMEEIGNLLSNAANPVEFMCQAFKIVPYNTETLDKLLTESLKNNIPASGLHLFGINQLEEEDMMTNQRDEELPTLLHFAAKYGLKNLTALLLTCPGALQAYSVANKHGHYPNTIAEKHGFRDLRQFIDEYVETVDMLKSHIKEELMHGEEADAVYESMAHLSTDLLMKCSLNPGCDEDLYESMAAFVPAATEDLYVEMLQASTSNPIPGDGFSRATKDSMIRKFLEGNSMGMTNLERDQCHLGQEEDVYHTVDDDEAFSVDLASRPPVPVPRPETTAPGAHQLPDNEPYIFKVFAEKSQERPGNFYVSSESIRKGPPVRPWRDRPQSSIYDPFAGMKTPGQRQLITLQEQVKLGIVNVDEAVLHFKEWQLNQKKRSESFRFQQENLKRLRDSITRRQREKQKSGKQTDLEITVPIRHSQHLPAKVEFGVYESGPRKSVIPPRTELRRGDWKTDSTSSTASSTSNRSSTRSLLSVSSGMEGDNEDNEVPEVTRSRSPGPPQVDGTPTMSLERPPRVPPRAASQRPPTRETFHPPPPVPPRGR
Consider B1, for which the binding result (with histatin 5 (human); in experiment [1]) was “binds” throughout.

B2: MUF1 protein variant (Fragment) (protein, UniProt Q15345 1-812)
chain: MAAPEAWRARSCWFCEVAAATTMEATSREAAPAKSSASGPNAPPALFELCGRAVSAHMGVLESGVWALPGPILQSILPLLNIYYLERIEETALKKGLSTQAIWRRLWDELMKTRPSSLESVTCWRAKFMEAFFSHVLRGTIDVSSDRRLCDQRFSPLLHSSRHVRQLTICNMLQGATELVAEPNRRVLETLASSLHTLKFRHLLFSDVAAQQSLRQLLHQLIHHGAVSQVSLYSWPVPESALFILILTMSAGFWQPGPGGPPCRLCGEASRGRAPSRDEGSLLLGSRRPRRDAAERCAAALMASRRKSEAKQMPRAAPATRVTRRSTQESLTAGGTDLKRELHPPATSHEAPGTKRSPSAPAATSSASSSTSSYKRAPASSAPQPKPLKRFKRAAGKKGARTRQGPGAESEDLYDFVFIVAGEKEDGEEMEIGEVACGALDGSDPSCLGLPALEASQRFRSISTLELFTVPLSTEAALTLCHLLSSWVSLESLTLSYNGLGSNIFRLLDSLRALSGQAGCRLRALHLSDLFSPLPILELTRAIVRALPLLRVLSIRVDHPSQRDNPGVPGNAGPPSHIIGDEEIPENCLEQLEMGFPRGAQPAPLLCSVLKASGSLQQLSLDSATFASPQDFGLVLQTLKEYNLALKRLSFHDMNLADCQSEVLFLLQNLTLQEITFSFCRLFEKRPAQFLPEMVAAMKGNSTLKGLRLPGNRLGNAGLLALADVFSEDSSSSLCQLDISSNCIKPDGLLEFAKRLERWGRGAFGHLRLFQNWLDQDAVTAREAIRRLRATCHVVSDSWDSSQAFADYVSTM
Consider B2, for which the binding result (in the experiment with histatin 5 (human); in experiment [1]) was “binds” each time.

B3: Teashirt homolog 1 (protein, UniProt Q6ZSZ6 1-1077)
chain: MPRRKQQAPRRSAAYVPEEELKAAEIDEEHVEDDGLSLDIQESEYMCNEETEIKEAQSYQNSPVSSATNQDAGYGSPFSESSDQLAHFKGSSSREEKEDPQCPDSVSYPQDSLAQIKAVYANLFSESCWSSLALDLKKSGSTTSTNDASQKESSAPTPTPPTCPVSTTGPTTSTPSTSCSSSTSHSSTTSTSSSSGYDWHQAALAKTLQQTSSYGLLPEPSLFSTVQLYRQNNKLYGSVFTGASKFRCKDCSAAYDTLVELTVHMNETGHYRDDNRDKDSEKTKRWSKPRKRSLMEMEGKEDAQKVLKCMYCGHSFESLQDLSVHMIKTKHYQKVPLKEPVPAITKLVPSTKKRALQDLAPPCSPEPAGMAAEVALSESAKDQKAANPYVTPNNRYGYQNGASYTWQFEARKAQILKCMECGSSHDTLQQLTAHMMVTGHFLKVTTSASKKGKQLVLDPVVEEKIQSIPLPPTTHTRLPASSIKKQPDSPAGSTTSEEKKEPEKEKPPVAGDAEKIKEESEDSLEKFEPSTLYPYLREEDLDDSPKGGLDILKSLENTVSTAISKAQNGAPSWGGYPSIHAAYQLPGTVKPLPAAVQSVQVQPSYAGGVKSLSSAEHNALLHSPGSLTPPPHKSNVSAMEELVEKVTGKVNIKKEERPPEKEKSSLAKAASPIAKENKDFPKTEEVSGKPQKKGPEAETGKAKKEGPLDVHTPNGTEPLKAKVTNGCNNLGIIMDHSPEPSFINPLSALQSIMNTHLGKVSKPVSPSLDPLAMLYKISNSMLDKPVYPATPVKQADAIDRYYYENSDQPIDLTKSKNKPLVSSVADSVASPLRESALMDISDMVKNLTGRLTPKSSTPSTVSEKSDADGSSFEEALDELSPVHKRKGRQSNWNPQHLLILQAQFASSLRETTEGKYIMSDLGPQERVHISKFTGLSMTTISHWLANVKYQLRRTGGTKFLKNLDTGHPVFFCNDCASQFRTASTYISHLETHLGFSLKDLSKLPLNQIQEQQNVSKVLTNKTLGPLGATEEDLGSTFQCKLCNRTFASKHAVKLHLSKTHGKSPEDHLIYVTELEKQ
Turning to B3, the binding result (with histatin 5 (human); in experiment [1]) was “binds” throughout.

B4: BPI fold-containing family A member 2 (protein, UniProt Q96DR5 19-249)
chain: ESLLDNLGNDLSNVVDKLEPVLHEGLETVDNTLKGILEKLKVDLGVLQKSSAWQLAKQKAQEAEKLLNNVISKLLPTNTDIFGLKISNSLILDVKAEPIDDGKGLNLSFPVTANVTVAGPIIGQIINLKASLDLLTAVTIETDPQTHQPVAVLGECASDPTSISLSLLDKHSQIINKFVNSVINTLKSTVSSLLQKEICPLIRIFIHSLDVNVIQQVVDNPQHKTQLQTLI
As to B4, the binding result (in the experiment with histatin 5 (human); in experiment [1]) was “binds” in each case.

B5: Lim-homeobox transcription factor LHX3 (protein, UniProt Q9UBR4 1-397)
chain: MLLETGLERDRARPGAAAVCTLGGTREIPLCAGCDQHILDRFILKALDRHWHSKCLKCSDCHTPLAERCFSRGESVYCKDDFFKRFGTKCAACQLGIPPTQVVRRAQDFVYHLHCFACVVCKRQLATGDEFYLMEDSRLVCKADYETAKQREAEATAKRPRTTITAKQLETLKSAYNTSPKPARHVREQLSSETGLDMRVVQVWFQNRRAKEKRLKKDAGRQRWGQYFRNMKRSRGGSKSDKDSVQEGQDSDAEVSFPDEPSLAEMGPANGLYGSLGEPTQALGRPSGALGNFSLEHGGLAGPEQYRELRPGSPYGVPPSPAAPQSLPGPQPLLSSLVYPDTSLGLVPSGAPGGPPPMRVLAGNGPSSDLSTGSSGGYPDFPASPASWLDEVDHAQF
Take B5: the binding entry (with histatin 5 (human); in experiment [1]) was “binds” throughout.
